Consider 36 targets from the supplement of paper PMC12819154, “High-throughput peptide-centric local stability assay extends protein–ligand identification to membrane proteins, tissues and bacteria” (Nature Structural & Molecular Biology, 2025).

Sequences of proteins named here, by UniProt entry; tags and fusion partners are left off. A change or cut given only in a name is not applied to a line headed by its entry.
UniProt Q811C2: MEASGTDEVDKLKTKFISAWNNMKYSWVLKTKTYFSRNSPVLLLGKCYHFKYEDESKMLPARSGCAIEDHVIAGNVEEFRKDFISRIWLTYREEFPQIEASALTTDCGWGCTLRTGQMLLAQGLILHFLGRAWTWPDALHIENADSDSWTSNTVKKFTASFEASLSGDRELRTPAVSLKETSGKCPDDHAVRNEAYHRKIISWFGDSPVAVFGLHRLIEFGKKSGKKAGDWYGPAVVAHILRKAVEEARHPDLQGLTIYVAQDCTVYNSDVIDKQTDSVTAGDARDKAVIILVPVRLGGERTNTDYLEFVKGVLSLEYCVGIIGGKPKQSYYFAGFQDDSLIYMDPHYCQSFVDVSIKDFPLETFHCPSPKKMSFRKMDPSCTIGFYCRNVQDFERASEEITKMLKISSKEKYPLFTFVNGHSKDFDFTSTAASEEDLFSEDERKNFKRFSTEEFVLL
UniProt Q8BGH2: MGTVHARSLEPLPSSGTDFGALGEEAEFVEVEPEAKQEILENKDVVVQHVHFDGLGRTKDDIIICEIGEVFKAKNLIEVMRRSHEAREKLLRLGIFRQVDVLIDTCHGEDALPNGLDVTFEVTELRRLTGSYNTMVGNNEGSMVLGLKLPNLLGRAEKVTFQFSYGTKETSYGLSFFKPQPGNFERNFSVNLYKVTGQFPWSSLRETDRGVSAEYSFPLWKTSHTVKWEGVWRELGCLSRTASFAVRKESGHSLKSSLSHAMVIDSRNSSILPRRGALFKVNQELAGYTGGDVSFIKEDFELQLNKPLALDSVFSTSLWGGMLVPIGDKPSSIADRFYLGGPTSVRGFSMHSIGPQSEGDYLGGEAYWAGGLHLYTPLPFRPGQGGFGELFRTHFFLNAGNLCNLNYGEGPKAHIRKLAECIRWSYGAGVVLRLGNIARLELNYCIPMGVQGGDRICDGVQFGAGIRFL
UniProt Q80Z37: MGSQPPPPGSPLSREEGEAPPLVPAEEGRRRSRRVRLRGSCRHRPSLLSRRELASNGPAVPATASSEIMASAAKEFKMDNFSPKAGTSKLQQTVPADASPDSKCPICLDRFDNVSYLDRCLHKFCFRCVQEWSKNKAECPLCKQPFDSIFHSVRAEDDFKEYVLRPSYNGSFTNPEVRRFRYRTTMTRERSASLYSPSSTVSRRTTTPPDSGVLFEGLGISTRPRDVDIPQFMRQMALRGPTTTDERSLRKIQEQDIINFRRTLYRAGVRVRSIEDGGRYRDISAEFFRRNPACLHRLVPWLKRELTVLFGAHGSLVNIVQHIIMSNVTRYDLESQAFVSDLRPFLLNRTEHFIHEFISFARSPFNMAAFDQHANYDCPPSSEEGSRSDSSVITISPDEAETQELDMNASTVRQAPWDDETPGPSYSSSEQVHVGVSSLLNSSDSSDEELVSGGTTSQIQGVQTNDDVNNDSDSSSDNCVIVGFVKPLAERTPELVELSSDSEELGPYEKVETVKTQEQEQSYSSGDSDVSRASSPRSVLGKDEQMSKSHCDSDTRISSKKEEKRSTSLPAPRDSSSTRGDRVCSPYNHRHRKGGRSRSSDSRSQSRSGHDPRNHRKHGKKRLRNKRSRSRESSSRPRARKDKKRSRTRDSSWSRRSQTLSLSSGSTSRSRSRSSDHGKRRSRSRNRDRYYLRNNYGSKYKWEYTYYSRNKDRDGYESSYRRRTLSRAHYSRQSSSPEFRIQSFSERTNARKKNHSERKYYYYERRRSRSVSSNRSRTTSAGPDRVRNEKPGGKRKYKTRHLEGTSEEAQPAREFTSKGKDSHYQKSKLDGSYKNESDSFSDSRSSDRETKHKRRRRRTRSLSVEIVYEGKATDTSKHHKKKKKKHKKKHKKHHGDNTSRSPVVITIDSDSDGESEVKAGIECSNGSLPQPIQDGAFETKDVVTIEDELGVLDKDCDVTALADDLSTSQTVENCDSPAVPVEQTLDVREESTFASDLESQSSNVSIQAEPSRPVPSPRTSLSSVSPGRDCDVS
UniProt Q80Y14: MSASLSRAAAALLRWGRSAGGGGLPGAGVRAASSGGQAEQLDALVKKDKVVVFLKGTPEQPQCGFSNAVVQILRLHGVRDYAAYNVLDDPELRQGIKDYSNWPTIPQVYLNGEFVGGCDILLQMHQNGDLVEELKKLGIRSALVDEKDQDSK
UniProt Q8BGB2: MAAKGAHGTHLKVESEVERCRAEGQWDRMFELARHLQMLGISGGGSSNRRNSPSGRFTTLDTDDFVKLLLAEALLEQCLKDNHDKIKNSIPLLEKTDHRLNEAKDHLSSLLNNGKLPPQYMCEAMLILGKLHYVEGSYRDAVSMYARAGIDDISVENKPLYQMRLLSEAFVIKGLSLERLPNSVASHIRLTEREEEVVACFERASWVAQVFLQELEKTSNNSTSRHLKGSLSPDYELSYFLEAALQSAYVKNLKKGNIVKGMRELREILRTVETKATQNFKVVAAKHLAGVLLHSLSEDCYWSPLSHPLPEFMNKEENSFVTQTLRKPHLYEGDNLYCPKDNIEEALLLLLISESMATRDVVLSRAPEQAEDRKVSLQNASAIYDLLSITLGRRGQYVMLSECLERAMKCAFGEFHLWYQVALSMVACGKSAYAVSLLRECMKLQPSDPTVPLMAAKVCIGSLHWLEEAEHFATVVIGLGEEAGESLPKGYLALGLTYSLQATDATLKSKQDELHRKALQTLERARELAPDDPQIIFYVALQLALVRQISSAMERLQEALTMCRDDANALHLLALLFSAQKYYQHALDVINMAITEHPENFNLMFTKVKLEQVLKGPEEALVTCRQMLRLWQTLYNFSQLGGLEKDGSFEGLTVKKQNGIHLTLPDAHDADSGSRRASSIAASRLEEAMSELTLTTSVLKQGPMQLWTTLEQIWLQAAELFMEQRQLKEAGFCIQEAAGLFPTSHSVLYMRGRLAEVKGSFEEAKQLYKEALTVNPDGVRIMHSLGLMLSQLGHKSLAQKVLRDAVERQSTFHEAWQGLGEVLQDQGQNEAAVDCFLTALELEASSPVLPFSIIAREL
UniProt Q8BG80: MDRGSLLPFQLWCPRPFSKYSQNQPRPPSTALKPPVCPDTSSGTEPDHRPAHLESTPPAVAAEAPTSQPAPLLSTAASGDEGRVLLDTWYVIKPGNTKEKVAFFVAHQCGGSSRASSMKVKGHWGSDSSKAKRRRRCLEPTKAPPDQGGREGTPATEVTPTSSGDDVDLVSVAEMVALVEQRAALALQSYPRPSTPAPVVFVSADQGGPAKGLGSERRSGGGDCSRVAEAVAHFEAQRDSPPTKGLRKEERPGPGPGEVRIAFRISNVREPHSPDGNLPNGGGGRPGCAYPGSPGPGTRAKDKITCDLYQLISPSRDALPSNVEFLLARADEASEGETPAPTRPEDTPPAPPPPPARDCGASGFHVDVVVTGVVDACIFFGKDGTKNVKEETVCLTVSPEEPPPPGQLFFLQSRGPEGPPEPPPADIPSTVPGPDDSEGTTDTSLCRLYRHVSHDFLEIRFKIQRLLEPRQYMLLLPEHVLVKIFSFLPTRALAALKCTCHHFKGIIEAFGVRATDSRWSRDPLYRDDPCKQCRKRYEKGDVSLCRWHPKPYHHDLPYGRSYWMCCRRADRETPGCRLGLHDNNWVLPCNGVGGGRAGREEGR
UniProt Q8BFU3: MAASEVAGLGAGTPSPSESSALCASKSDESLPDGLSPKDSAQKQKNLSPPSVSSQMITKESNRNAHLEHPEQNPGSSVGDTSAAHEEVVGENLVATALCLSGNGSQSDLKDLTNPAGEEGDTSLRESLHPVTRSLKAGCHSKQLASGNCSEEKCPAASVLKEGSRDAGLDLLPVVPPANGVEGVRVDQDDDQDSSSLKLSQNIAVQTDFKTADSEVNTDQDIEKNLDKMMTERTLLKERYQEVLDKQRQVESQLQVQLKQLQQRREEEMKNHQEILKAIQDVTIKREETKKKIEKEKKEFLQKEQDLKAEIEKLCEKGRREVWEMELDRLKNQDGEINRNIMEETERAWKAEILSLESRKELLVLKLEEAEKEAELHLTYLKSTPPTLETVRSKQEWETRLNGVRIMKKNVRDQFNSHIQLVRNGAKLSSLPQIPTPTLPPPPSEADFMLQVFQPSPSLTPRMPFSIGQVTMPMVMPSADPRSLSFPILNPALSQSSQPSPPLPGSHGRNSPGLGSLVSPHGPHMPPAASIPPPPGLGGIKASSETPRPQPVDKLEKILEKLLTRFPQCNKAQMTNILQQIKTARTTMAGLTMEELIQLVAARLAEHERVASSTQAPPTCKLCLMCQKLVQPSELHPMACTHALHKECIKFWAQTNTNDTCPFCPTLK
UniProt Q8BGQ4: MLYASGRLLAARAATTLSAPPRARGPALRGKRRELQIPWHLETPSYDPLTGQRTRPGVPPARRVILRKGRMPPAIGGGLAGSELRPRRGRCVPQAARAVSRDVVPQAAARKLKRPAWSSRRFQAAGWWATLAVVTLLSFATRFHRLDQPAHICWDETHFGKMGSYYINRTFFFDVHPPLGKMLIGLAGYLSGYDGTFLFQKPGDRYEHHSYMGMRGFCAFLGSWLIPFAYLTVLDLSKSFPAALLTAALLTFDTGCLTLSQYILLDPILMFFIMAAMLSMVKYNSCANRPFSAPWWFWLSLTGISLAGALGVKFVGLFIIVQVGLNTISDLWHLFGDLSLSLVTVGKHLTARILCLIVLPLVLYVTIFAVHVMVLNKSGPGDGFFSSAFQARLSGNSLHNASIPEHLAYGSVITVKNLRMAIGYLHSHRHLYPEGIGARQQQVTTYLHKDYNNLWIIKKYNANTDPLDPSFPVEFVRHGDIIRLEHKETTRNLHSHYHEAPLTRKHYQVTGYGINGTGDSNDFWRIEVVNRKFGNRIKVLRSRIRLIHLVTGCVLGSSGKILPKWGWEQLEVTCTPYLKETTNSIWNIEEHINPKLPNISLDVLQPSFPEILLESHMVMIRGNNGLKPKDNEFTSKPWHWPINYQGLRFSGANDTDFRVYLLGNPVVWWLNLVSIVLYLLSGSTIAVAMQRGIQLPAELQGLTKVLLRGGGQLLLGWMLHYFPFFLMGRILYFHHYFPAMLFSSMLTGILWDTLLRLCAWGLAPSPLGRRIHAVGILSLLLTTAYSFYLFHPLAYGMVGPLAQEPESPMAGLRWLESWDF
UniProt Q8BG32, whole entry: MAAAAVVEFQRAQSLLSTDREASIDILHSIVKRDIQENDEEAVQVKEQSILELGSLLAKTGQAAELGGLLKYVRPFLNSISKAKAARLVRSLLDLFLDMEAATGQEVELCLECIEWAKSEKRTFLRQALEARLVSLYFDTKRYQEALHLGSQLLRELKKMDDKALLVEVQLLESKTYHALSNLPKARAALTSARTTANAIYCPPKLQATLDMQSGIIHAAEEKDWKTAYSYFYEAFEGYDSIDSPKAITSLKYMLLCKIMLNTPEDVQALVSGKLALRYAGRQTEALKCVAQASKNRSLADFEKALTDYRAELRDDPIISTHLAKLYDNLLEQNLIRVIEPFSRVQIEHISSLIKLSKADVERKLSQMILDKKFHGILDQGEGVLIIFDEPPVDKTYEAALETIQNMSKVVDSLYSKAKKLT
UniProt Q8BGA8: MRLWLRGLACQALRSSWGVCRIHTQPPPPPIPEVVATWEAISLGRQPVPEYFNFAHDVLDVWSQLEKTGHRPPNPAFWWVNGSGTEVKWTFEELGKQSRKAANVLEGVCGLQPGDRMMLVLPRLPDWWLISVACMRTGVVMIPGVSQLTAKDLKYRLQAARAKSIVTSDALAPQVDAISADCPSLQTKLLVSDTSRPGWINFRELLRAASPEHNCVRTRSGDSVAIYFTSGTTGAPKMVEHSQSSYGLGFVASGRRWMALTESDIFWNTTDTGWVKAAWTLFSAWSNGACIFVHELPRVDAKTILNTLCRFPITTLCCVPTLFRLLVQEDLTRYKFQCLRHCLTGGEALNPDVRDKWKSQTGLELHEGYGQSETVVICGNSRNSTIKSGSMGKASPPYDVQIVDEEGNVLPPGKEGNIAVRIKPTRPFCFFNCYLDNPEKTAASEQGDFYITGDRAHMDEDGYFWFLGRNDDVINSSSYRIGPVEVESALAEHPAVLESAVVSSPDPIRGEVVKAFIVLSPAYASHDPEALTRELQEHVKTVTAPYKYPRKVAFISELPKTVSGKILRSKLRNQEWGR
UniProt Q8BFW4: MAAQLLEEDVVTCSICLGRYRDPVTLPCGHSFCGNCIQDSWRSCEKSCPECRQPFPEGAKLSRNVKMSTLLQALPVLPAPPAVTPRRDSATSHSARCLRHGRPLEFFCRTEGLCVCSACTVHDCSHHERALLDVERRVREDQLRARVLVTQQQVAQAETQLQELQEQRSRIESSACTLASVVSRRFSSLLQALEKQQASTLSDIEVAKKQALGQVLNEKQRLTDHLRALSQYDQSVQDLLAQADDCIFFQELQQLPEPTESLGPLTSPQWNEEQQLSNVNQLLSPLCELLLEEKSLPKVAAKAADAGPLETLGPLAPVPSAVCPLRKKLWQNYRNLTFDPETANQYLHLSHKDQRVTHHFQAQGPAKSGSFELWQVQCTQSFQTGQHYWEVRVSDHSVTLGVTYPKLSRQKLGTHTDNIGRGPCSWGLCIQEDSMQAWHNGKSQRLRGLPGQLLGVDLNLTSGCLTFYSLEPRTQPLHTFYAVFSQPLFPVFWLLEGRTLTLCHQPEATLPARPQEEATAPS

The other results are listed elsewhere or left out. Most entries show no effect beyond the scatter of the controls.

Compound in the test: CN[C@@H]1C[C@H]2O[C@@](C)([C@@H]1OC)n1c3ccccc3c3c4c(c5c6ccccc6n2c5c31)C(=O)NC4 [staurosporine]
As to the kind of experiment: log2 fold change of tryptic peptide abundance, ligand vs vehicle (limited proteolysis) (log2 ratio); higher = more trypsin-susceptible (destabilized). Particulars: ligand concentration: 20 uM; sample: mouse liver crude lysate; replicate design: treated separately.
Regarding “UniProt Q80YE4 (peptide sequence: HSGIQDSQKEQDLR, peptide start residue: 1018)”, the log2 fold change worked out at 0.367.
Then “UniProt Q811C2 (peptide sequence: FISAWNNMK, peptide start residue: 16)”, with -0.0711.
For “UniProt Q8BGH2 (peptide sequence: FYLGGPTSVR, peptide start residue: 337)” the value was 0.406; for “UniProt Q80Z37 (peptide sequence: KYYYYER, peptide start residue: 759)”, -0.209; for “UniProt Q810V0 (peptide sequence: SSQAFFSK, peptide start residue: 642)”, -0.188.
For “UniProt Q80VP5 (peptide sequence: KADADGIPR, peptide start residue: 172)” the value was -0.104; for “UniProt Q8BGS2 (peptide sequence: TLTPEQWTR, peptide start residue: 74)”, 0.115.
Take “UniProt Q80Y56 (peptide sequence: LLGLMSLPTKEQFEELK, peptide start residue: 369)”: the log2 fold change amounted to 0.207.
For “UniProt Q80YT7 (peptide sequence: MLQDLLSDRNK, peptide start residue: 626)” the value was -0.68.
Then “UniProt Q80WG5 (peptide sequence: MNGSMDKK, peptide start residue: 190)”, with -0.357; and “UniProt Q80Y14 (peptide sequence: DKVVVFLK, peptide start residue: 48)”, with 0.0236.
With “UniProt Q80XR2 (peptide sequence: GQTLALTQQQR, peptide start residue: 496)”, the log2 fold change is -0.378.
Then “UniProt Q8BGB2 (peptide sequence: NSIPLLEK, peptide start residue: 88)”, with -0.174; and “UniProt Q8BGZ3 (peptide sequence: HNVSPVPVYAHITHK, peptide start residue: 224)”, with 0.335.
For the target “UniProt Q80XJ3 (peptide sequence: ASETSAFSKPILSHQR, peptide start residue: 2200)”, the log2 fold change was -0.0306.
As to “UniProt Q8BG80 (peptide sequence: VAEAVAHFEAQR, peptide start residue: 227)”, the log2 fold change came out at 0.0337.
For “UniProt Q80XC2 (peptide sequence: HSVDLIGRPFGSK, peptide start residue: 45)” the value was 0.082; for “UniProt Q8BH35 (peptide sequence: SVLEVAHYK, peptide start residue: 296)”, 0.142; for “UniProt Q8BGR2 (peptide sequence: HVSTSSDEGSPSASTPMINK, peptide start residue: 238)”, -0.444.
In the case of “UniProt Q80X53 (peptide sequence: PSIDTVHR, peptide start residue: 126)”, the log2 fold change was determined as 0.423.
For “UniProt Q8BFU3 (peptide sequence: SKQEWETR, peptide start residue: 393)” the value was 0.174; for “UniProt Q8BGA9 (peptide sequence: NAEIAQQLR, peptide start residue: 366)”, 0.0529; for “UniProt Q8BHD7 (peptide sequence: SQPVYIQYSNHR, peptide start residue: 94)”, -0.122.
For the target “UniProt Q80WT5 (peptide sequence: YQWGGSHSNKK, peptide start residue: 712)”, the log2 fold change is -0.196.
Then “UniProt Q8BHL8 (peptide sequence: SGIITPIHEQWEK, peptide start residue: 136)”, with -0.0627.
For “UniProt Q8BGV5 (peptide sequence: EIPLQSQSHK, peptide start residue: 162)” the value was 0.25; for “UniProt Q8BGQ4 (peptide sequence: DVVPQAAAR, peptide start residue: 102)”, 0.171; for “UniProt Q80W47 (peptide sequence: GAYVPSSPTR, peptide start residue: 389)”, -0.137.
For “UniProt Q8BG32 (peptide sequence: ALLVEVQLLESK, peptide start residue: 164)” the value was 0.896.
Turning to “UniProt Q80YR9 (peptide sequence: GQHPFGNFDHLQGGKFDFEK, peptide start residue: 716)”, the log2 fold change was determined as 0.313.
With “UniProt Q8BGA8 (peptide sequence: VAFISELPK, peptide start residue: 552)”, the log2 fold change is 0.155.
For “UniProt Q8BFW4 (peptide sequence: KQALGQVLNEK, peptide start residue: 209)” the value was 0.493; for “UniProt Q8BFV2 (peptide sequence: DGASCAELVSFK, peptide start residue: 21)”, 0.303.
For “UniProt Q8BHG3 (peptide sequence: GAHQPDNTAFTQQR, peptide start residue: 9)” the value was -0.506; for “UniProt Q811F1 (peptide sequence: AADLAFLEK, peptide start residue: 850)”, 0.0264; for “UniProt Q8BGG6 (peptide sequence: HVAPVPSHYDVQDR, peptide start residue: 98)”, 0.233.
